From PubChem BioAssay (NCATS)
This list holds what a sample rich in hits left over. Records with an inconclusive call do not appear. Active and inactive are the calls of the source. The call rests on the fitted dose curve; in most records, active means well fitted cell-killing curve with a large enough effect; inconclusive means small, poorly fitted or top-dose-only effect; inactive means flat fitted curve, though single readings scatter.

Tests used:
[1] = Cell Viability - LYMP2-017 (AID 972); conditions: LYMP2-017 lymphoblastoid cell viability; at 92.2 µM (top of the series); further: on the % scale 0 is the no-effect control and ±100 the full control effect; nearly all actives have a fitted effect of over 55% in size
Summary of the method: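 LYMP2-017 human lymphoblastoid cells (2500/well) settled 5 hr at 37 C, then exposed to compound 24 hr at 37 C in complete medium. Viability taken as intracellular ATP by CellTiter-Glo luminescence after 30 min at RT; AC50 from Hill fits.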

[2] = Cell Viability - LYMP2-019 (AID 973); conditions: LYMP2-019 lymphoblastoid cell line viability; at 92.2 µM (top of the series);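 further: 0% = DMSO alone and full effect = 92 µM tetraoctylammonium bromide; nearly all actives have a fitted effect of over 55% in size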
[3] = Cell Viability - LYMP2-021 (AID 974); conditions: LYMP2-021 lymphoblastoid cells viability; at 92.2 µM (top of the series);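 further: compound exposure lasts 24 hours at 37 °C; on the % scale 0 is the no-effect control and ±100 the full control effect; nearly all actives have a fitted effect of over 55% in size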
Summary of the method: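 Human lymphoblastoid LYMP2-021 cells, 2500/well in complete medium, treated 24 hours at 37 C. Intracellular ATP by CellTiter-Glo luminescence (30 min, RT); AC50 from Hill fits of concentration-response.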

[4] = Cell Viability - LYMP2-023 (AID 975); conditions: LYMP2-023 lymphoblastoid cell viability; at 92.2 µM (top of the series);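 further: cellular ATP measured by luciferase luminescence as viability proxy; plate controls were DMSO only for no effect and 92 µM tetraoctylammonium bromide control for full effect; nearly all actives have a fitted effect of over 55% in size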
Summary of the method: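 LYMP2-023 human lymphoblastoid cells, 2500/well, preincubated 5 hr at 37 C, then compound-treated 24 hr at 37 C in complete medium. CellTiter-Glo luminescence (ATP) after 30 min at room temperature; AC50 from Hill-equation fits; tetraoctylammonium bromide positive control.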

[5] = Cell Viability - LYMP2-025 (AID 976); conditions: LYMP2-025 lymphoblastoid cell viability; at 92.2 µM (top of the series);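 further: plate controls were DMSO only for no effect and tetraoctylammonium bromide control for full effect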
Summary of the method: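 Human lymphoblastoid LYMP2-025 cells, 2500/well, exposed 24 h at 37 C in complete medium in 1536-well qHTS. Viability as cellular ATP by CellTiter-Glo luminescence; AC50 from Hill fits of concentration-response data.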

[6] = Cell Viability - LYMP2-002 (AID 977); conditions: LYMP2-002 lymphoblastoid cell viability, qHTS; at 92.2 µM (top of the series);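 further: compound exposure lasted 24 h at 37 °C; plate controls were DMSO only for no effect and 92 µM tetraoctylammonium bromide for full effect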
Summary of the method: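 Human lymphoblastoid LYMP2-002 cells, 2500 per well, exposed to compounds for 24 h at 37 C in complete medium; viability read as intracellular ATP by CellTiter-Glo luminescence, AC50 from Hill fits.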

[7] = Cell Viability - LYMP2-006 (AID 978); conditions: LYMP2-006 lymphoblastoid cell viability, qHTS; at 92.2 µM (top of the series); further: on the % scale 0 is the no-effect control and ±100 the full control effect; nearly all actives have a fitted effect of over 60% in size
Summary of the method: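 Cells are seeded at 2500 per well and rested 5 hr at 37 C. Compounds are added across a concentration series for 24 hr at 37 C, after which ATP is quantified by luciferase luminescence.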

[8] = Cell Viability - LYMP2-007 (AID 979); conditions: LYMP2-007 lymphoblastoid cell viability; at 92.2 µM (top of the series);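 further: cells exposed to compound for 24 h before reading; 0% = DMSO only and the negative end = 92 µM tetraoctylammonium bromide; nearly all actives have a fitted effect of over 60% in size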
Description: NIH Chemical Genomics Center [NCGC]
NIH Molecular Libraries Screening Centers Network [MLSCN]
National Institutes of Environmental Health Sciences [NIEHS]
National Toxicology Program [NTP]
We have developed a 1536-well cell-based assay for quantitative high throughput screening (qHTS) against a number of cell lines to determine in vitro cytotoxicity of small molecules. This particular assay uses a human lymphoblastoid cell line (LYMP2-007) purchased from Coriell Institute for Medical Research.
NCGC Assay Protocol Summary:
The CellTiter-Glo luminescent cell viability assay (Promega) is a homogeneous method to measure the number of viable cells in culture. The end point readout of this assay is based on quantitation of intracellular ATP, an indicator of metabolic activity, using the luciferase reaction. […]
Using the CellTiter-Glo luminescent cell viability assay, the amount of cellular ATP was measured in the lymphoblastoid cell line with complete culture medium following compound treatment for 24 hours. […] Library compounds were measured for their ability to cause acute toxicity in the cell line, as reflected by a decrease in intracellular ATP levels, in a concentration-dependent manner. […] AC50 values were determined from concentration-response data modeled with the standard Hill equation. […]
8. Detection; Luminescence; Viewlux plate reader […]

[9] = Cell Viability - LYMP2-008 (AID 980); conditions: LYMP2-008 lymphoblastoid cell viability, qHTS; at 92.2 µM (top of the series); further: on the % scale 0 is the no-effect control and ±100 the full control effect; nearly all actives have a fitted effect of over 60% in size
Summary of the method: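 LYMP2-008 lymphoblastoid cells (2500/well) plated 5 h, then treated 24 h at 37 C in complete medium. Viability read as intracellular ATP by CellTiter-Glo luminescence after 30 min at room temperature; AC50 from Hill fits.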

[10] = Cell Viability - LYMP2-010 (AID 981); conditions: LYMP2-010 lymphoblastoid cell viability, qHTS; at 92.2 µM (top of the series)
Summary of the method: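 Human lymphoblastoid LYMP2-010 cells (2500/well) treated 24 h at 37 C in complete medium; viability read as intracellular ATP by CellTiter-Glo luminescence. AC50 from Hill fits of concentration-response data; tetraoctylammonium bromide positive control.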

[11] = Cell Viability - LYMP2-012 (AID 982); conditions: LYMP2-012 lymphoblastoid cell viability qHTS; at 92.2 µM (top of the series)
[12] = Cell Viability - LYMP2-014 (AID 983); conditions: LYMP2-014 lymphoblastoid cells, viability qHTS; at 92.2 µM (top of the series);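 further: plate controls were DMSO only for no effect and 92 µM tetraoctylammonium bromide for full effect; nearly all actives have a fitted effect of over 50% in size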
[13] = Cell Viability - LYMP2-016 (AID 984); conditions: LYMP2-016 lymphoblastoid cell viability, qHTS; at 92.2 µM (top of the series)
Summary of the method: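 Cells were seeded at 2500 per well and rested 5 hr before a 24 hr compound exposure at 37 C. Viability was then gauged as cellular ATP by luciferase luminescence, with AC50 values fitted to the Hill equation.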

[14] = Cell Viability - LYMP2-018 (AID 985); conditions: LYMP2-018 lymphoblastoid cells, viability (qHTS); at 92.2 µM (top of the series);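 further: plate controls were DMSO only for no effect and tetraoctylammonium bromide at 92 µM for full effect; nearly all actives have a fitted effect of over 50% in size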
Summary of the method: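 Human lymphoblastoid LYMP2-018 cells, 2500/well, settled 5 hr at 37 C then exposed to compound 24 hr at 37 C; intracellular ATP measured by CellTiter-Glo luminescence. AC50 from Hill-equation concentration-response fits.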

[15] = Cell Viability - LYMP2-022 (AID 987); conditions: LYMP2-022 lymphoblastoid cell viability; at 92.2 µM (top of the series)
Summary of the method: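 LYMP2-022 lymphoblastoid cells (2500/well, complete medium) were treated with compounds for 24 hours at 37 C; intracellular ATP was then read by CellTiter-Glo luminescence after 30 min at room temperature. AC50 values were derived from Hill-equation fits.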

[16] = Cell Viability - LYMP2-024 (AID 988); conditions: LYMP2-024 lymphoblastoid cell viability; at 92.2 µM (top of the series);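 further: plate controls were DMSO only for no effect and 92 µM tetraoctylammonium bromide for full effect; nearly all actives have a fitted effect of over 60% in size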
[17] = Cell Viability - LYMP2-026 (AID 989); conditions: LYMP2-026 lymphoblastoid cell viability, qHTS; at 92.2 µM (top of the series); further: on the % scale 0 is the no-effect control and ±100 the full control effect; nearly all actives have a fitted effect of over 50% in size
Summary of the method: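 Human lymphoblastoid LYMP2-026 cells, 2500/well, exposed to compound 24 h at 37 C in complete medium. Viability as intracellular ATP by CellTiter-Glo luminescence; AC50 from Hill fits of qHTS concentration-response.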

Nc1ccc(N)c([N+](=O)[O-])c1
inactive: activity change, negative = cytotoxicity [1] -23.9% | activity change, negative = cytotoxicity [2] -10.8% | activity change, negative = cytotoxicity [3] -6.86% | activity change, negative = cytotoxicity [4] -0.727% | activity change, negative = cytotoxicity [5] -10.2% | activity change, negative = cytotoxic [6] -10.7% | activity change, negative = cytotoxicity [7] -3.22% | activity change, negative = cytotoxicity [8] -8.02% | activity change, negative = cytotoxicity [9] -10.9% | activity, negative = cytotoxicity [10] -19.3% | activity change, negative = cytotoxicity [11] -6.26% | activity change, negative = cytotoxicity [12] 2.49% | activity change, negative = cytotoxicity [13] -6.06% | activity change, negative = cytotoxicity [14] -17.4% | viability change, negative = cytotoxic [15] -20.9% | activity change, negative = cytotoxicity [16] -13.9% | activity change, negative = cytotoxic [17] 0.273%
